According to the supplement of paper PMC10849652:
The other results are listed elsewhere or left out.

Sequences of proteins named here, by UniProt entry; tags and fusion partners are left off. A change or cut given only in a name is not applied to a line headed by its entry.
UniProt Q15233: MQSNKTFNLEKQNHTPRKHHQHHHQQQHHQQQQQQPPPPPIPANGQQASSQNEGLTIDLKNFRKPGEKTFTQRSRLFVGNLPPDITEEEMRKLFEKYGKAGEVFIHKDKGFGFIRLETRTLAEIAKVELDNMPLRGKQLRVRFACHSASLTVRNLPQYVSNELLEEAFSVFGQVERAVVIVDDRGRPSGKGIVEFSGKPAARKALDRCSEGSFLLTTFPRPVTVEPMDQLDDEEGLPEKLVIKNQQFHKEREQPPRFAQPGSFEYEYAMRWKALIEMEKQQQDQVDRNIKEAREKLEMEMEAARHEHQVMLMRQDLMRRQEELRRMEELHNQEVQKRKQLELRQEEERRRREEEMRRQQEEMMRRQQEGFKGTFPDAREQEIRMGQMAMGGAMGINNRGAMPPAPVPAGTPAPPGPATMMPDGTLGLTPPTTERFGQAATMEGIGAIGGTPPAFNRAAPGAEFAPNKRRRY
UniProt P06748, whole entry, looked up: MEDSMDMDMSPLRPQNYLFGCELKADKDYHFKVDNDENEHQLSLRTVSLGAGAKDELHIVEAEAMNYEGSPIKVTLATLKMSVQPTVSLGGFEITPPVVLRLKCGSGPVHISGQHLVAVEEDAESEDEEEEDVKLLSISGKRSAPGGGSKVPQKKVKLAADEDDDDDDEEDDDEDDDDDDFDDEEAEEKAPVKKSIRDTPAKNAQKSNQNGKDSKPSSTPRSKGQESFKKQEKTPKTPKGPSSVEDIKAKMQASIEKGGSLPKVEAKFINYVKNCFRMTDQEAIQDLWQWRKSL
UniProt Q9Y639: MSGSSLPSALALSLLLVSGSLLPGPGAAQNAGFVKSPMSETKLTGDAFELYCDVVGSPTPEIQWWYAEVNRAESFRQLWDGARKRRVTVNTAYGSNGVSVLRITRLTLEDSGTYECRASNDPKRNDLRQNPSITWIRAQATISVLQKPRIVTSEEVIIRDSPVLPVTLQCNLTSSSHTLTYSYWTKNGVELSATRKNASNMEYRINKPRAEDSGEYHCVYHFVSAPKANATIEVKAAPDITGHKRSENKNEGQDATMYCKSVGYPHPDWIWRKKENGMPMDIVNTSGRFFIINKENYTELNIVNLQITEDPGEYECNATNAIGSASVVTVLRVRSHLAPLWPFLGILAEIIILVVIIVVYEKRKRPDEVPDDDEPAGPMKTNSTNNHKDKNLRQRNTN
UniProt Q15738: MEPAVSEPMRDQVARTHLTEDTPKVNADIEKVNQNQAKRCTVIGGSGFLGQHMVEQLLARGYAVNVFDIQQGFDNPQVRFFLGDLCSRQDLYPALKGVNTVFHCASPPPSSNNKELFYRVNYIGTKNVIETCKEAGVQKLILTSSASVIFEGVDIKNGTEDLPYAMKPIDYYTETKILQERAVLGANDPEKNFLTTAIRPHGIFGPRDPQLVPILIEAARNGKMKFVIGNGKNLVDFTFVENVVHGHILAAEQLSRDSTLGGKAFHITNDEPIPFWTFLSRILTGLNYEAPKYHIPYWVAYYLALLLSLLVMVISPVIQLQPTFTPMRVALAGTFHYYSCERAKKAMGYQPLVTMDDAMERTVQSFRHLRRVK
UniProt Q16621: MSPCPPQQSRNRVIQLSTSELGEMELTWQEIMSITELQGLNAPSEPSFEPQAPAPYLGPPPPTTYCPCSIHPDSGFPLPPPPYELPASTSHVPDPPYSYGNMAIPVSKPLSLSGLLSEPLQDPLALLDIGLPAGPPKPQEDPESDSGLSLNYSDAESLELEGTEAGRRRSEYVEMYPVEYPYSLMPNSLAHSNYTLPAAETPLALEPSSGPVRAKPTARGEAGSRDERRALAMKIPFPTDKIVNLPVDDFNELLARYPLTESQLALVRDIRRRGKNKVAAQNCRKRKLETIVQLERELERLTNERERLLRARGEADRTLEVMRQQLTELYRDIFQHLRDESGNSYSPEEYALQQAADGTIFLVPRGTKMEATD
UniProt Q9Y697: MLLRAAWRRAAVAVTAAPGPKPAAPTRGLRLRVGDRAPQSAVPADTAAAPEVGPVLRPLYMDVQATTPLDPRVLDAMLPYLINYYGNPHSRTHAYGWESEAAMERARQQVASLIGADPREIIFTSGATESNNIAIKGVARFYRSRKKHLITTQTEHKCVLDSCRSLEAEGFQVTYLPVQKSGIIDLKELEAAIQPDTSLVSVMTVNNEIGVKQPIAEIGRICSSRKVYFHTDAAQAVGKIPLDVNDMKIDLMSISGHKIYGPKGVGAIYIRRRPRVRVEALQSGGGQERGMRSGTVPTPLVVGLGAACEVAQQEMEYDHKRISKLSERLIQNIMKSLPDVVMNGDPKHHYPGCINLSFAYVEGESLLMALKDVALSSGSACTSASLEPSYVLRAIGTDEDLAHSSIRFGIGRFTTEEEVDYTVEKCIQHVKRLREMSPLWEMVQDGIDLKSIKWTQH
UniProt Q13952: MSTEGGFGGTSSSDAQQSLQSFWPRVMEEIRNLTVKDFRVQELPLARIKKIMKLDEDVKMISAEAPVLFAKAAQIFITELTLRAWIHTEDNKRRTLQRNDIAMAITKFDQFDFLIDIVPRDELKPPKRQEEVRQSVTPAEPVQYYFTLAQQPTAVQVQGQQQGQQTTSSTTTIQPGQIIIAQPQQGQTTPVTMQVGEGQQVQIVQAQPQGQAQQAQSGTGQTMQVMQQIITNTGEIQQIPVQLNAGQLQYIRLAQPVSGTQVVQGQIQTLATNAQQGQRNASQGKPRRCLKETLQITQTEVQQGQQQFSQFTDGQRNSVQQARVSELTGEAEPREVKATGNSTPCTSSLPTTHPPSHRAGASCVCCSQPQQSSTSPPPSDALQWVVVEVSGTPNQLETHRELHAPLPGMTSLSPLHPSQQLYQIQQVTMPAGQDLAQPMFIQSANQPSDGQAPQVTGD
UniProt Q9UMS0: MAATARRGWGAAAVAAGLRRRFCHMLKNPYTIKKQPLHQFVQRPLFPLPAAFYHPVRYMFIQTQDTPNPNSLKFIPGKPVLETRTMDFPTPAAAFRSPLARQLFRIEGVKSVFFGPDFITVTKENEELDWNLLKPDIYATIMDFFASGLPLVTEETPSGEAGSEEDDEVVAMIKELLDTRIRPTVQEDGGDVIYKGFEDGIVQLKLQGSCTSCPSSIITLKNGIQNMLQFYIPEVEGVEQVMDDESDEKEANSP
UniProt Q9UFN0: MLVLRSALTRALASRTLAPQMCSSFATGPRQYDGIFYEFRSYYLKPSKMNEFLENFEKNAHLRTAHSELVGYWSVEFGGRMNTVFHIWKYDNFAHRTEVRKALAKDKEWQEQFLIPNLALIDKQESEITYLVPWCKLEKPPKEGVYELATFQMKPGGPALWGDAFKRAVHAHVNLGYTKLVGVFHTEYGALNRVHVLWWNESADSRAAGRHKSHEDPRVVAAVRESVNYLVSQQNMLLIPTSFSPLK
UniProt O60551: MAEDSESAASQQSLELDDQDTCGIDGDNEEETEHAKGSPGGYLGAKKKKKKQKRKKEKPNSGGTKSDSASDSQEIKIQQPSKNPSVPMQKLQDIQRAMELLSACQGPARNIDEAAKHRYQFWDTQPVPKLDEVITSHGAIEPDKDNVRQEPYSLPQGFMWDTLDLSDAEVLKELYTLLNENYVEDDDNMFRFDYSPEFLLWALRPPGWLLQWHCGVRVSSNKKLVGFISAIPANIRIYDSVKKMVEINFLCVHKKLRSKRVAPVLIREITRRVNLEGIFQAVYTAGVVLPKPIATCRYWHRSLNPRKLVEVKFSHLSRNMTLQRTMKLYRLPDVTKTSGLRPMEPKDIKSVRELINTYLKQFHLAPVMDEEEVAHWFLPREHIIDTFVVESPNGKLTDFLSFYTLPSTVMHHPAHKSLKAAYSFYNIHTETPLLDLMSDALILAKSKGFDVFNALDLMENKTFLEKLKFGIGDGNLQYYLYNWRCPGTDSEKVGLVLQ
UniProt Q8NCF5: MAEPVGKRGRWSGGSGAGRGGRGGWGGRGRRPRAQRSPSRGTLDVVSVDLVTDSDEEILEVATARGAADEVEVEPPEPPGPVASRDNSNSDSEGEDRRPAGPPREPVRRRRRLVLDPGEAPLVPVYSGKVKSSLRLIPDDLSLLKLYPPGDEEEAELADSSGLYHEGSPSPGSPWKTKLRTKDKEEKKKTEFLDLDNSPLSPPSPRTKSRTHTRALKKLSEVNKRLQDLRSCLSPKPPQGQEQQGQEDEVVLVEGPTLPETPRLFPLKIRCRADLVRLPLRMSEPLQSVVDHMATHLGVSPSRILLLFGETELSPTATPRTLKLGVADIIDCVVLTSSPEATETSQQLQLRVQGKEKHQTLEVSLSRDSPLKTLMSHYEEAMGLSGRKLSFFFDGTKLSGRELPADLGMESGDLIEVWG
UniProt Q8N5F7: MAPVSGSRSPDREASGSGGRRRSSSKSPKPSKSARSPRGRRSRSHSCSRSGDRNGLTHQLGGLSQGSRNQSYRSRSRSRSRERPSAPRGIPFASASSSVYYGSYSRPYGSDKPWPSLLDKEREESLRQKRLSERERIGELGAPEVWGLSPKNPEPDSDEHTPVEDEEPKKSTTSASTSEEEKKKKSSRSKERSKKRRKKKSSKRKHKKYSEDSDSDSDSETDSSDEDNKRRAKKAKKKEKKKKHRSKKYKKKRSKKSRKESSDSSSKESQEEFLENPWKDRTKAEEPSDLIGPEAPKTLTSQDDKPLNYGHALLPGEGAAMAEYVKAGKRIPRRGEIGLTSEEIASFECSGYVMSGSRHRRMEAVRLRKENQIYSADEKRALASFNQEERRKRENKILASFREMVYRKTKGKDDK
UniProt Q15155: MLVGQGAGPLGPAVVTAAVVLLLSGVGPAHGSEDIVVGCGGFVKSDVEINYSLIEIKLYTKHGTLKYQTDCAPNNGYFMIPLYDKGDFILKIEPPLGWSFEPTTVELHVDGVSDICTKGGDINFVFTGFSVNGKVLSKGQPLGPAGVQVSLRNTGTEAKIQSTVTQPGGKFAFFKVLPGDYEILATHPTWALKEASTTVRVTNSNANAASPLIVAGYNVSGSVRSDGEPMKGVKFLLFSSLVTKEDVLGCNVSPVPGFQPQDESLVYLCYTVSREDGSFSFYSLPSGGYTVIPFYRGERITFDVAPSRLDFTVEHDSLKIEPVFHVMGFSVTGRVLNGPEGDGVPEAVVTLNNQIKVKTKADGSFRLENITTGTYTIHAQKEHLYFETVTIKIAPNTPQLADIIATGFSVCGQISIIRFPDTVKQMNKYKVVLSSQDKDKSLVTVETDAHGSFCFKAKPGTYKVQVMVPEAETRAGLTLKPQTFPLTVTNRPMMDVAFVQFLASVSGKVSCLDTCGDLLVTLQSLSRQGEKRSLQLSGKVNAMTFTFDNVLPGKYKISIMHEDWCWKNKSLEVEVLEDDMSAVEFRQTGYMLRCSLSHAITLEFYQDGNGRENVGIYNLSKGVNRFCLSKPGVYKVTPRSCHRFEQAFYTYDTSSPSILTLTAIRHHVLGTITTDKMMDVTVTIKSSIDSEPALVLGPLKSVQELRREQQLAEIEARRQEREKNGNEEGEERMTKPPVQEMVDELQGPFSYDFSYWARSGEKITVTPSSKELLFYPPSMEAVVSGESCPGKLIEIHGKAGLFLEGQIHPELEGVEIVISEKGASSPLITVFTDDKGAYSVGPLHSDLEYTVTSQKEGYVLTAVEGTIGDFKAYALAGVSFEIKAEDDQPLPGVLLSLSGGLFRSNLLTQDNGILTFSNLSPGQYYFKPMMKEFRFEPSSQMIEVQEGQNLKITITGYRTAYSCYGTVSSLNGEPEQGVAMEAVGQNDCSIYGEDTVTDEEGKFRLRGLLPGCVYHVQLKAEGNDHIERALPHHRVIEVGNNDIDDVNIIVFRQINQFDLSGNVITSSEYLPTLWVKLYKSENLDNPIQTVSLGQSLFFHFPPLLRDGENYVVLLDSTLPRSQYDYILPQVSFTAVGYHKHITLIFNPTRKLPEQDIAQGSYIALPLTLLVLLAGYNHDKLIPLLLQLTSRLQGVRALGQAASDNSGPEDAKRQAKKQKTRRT

What was measured:
Experiment in all cases: log2 fold change, soluble protein after heating vs DMSO (PISA); higher = thermal stabilisation; K562 cells, 10 uM, 30 min; active = over 0.2 and 3.5 SD of the protein, either way, in both replicates (recomputed)
bafetinib = compound: Cc1ccc(NC(=O)c2ccc(CN3CC[C@H](N(C)C)C3)c(C(F)(F)F)c2)cc1Nc1nccc(-c2cncnc2)n1 [bafetinib]
Procedure, shortened: (§1)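 Quantification of soluble protein used TMTpro 16plex LC-MS/MS, with channel sums equalised. Samples were the supernatant after 21,000xg for 90 min of pooled aliquots from K562 cells (2×10^6 cells/mL) treated with 10 μM compound for 30 min, heated for 3 min over 48°C-58°C, and extracted in PBS with 0.5% NP-40 at 4°C. Values, from duplicates, describe thermal stability against control samples on a log2 fold-change scale.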

[1] = compound: Cc1cccc(CC(=O)N2CCc3c2ccc(-c2cn(C)c4ncnc(N)c24)c3F)n1
Procedure, shortened: as §1

nilotinib = compound: Cc1cn(-c2cc(NC(=O)c3ccc(C)c(Nc4nccc(-c5cccnc5)n4)c3)cc(C(F)(F)F)c2)cn1 [nilotinib]
Procedure, shortened: as §1

[2] = compound: Cc1nc(Nc2n[nH]c3c2CN(C(=O)N[C@H](CN(C)C)c2ccccc2)C3(C)C)c2sccc2n1
Procedure, shortened: as §1

dasatinib = compound: Cc1nc(Nc2ncc(C(=O)Nc3c(C)cccc3Cl)s2)cc(N2CCN(CCO)CC2)n1 [dasatinib]
Procedure, shortened: as §1

[3] = compound: Cc1ncc(-c2ccnc(Nc3ccc(S(C)(=O)=O)cc3)n2)n1C(C)C
Procedure, shortened: as §1

[4] = compound: Cn1cc(-c2ccc3c(c2)CCN3C(=O)Cc2cccc(C(F)(F)F)c2)c2c(N)ncnc21
Procedure, shortened: as §1

[5] = compound: Cn1cc(-c2ccc3nnc(C(F)(F)c4ccc5ncccc5c4)n3n2)cn1
Procedure, shortened: as §1

tipifarnib = compound: Cn1cncc1[C@@](N)(c1ccc(Cl)cc1)c1ccc2c(c1)c(-c1cccc(Cl)c1)cc(=O)n2C [tipifarnib]
Procedure, shortened: as §1

mubritinib = compound: FC(F)(F)c1ccc(/C=C/c2nc(COc3ccc(CCCCn4ccnn4)cc3)co2)cc1 [mubritinib]
Procedure, shortened: as §1

Row | Target | log2 fold change (bafetinib) | log2 fold change [1] | log2 fold change (nilotinib) | log2 fold change [2] | log2 fold change (dasatinib) | log2 fold change [3] | log2 fold change [4] | log2 fold change [5] | log2 fold change (tipifarnib) | log2 fold change (mubritinib)
1 | NONO (UniProt Q15233) | inactive: 0.134 | inactive: -0.106 | inactive: -0.056 | inactive: -0.283 | inactive: 0 | inactive: -0.267 | inactive: -0.081 | inactive: -0.1 | inactive: 0.063 | inactive: -0.117
2 | NPM1 (UniProt P06748) | inactive: 0.233 | inactive: -0.073 | inactive: 0.068 | inactive: 0.104 | inactive: 0.184 | inactive: -0.036 | inactive: -0.224 | inactive: -0.199 | inactive: 0.09 | inactive: -0.166
3 | NPTN (UniProt Q9Y639) | inactive: -0.007 | inactive: -0.173 | inactive: 0.089 | inactive: 0.006 | inactive: -0.039 | inactive: 0.009 | inactive: 0.075 | inactive: 0.014 | inactive: 0.052 | inactive: 0.024
4 | NEU1 (UniProt Q99519) | inactive: -0.212 | inactive: 0.171 | inactive: -0.051 | inactive: -0.009 | inactive: 0.019 | inactive: -0.147 | inactive: -0.04 | inactive: 0.01 | inactive: 0.072 | inactive: -0.031
5 | NSDHL (UniProt Q15738) | inactive: 0.006 | inactive: 0.014 | inactive: 0.033 | inactive: -0.021 | inactive: 0.054 | inactive: 0.001 | inactive: 0.11 | inactive: 0.133 | inactive: 0.029 | inactive: 0.164
6 | NFE2 (UniProt Q16621) | inactive: -0.048 | inactive: -0.13 | inactive: -0.063 | inactive: -0.068 | inactive: -0.016 | inactive: -0.071 | inactive: -0.051 | inactive: -0.08 | inactive: -0.066 | inactive: 0.026
7 | NRBF2 (UniProt Q96F24) | inactive: -0.05 | inactive: -0.152 | inactive: 0.016 | inactive: -0.041 | inactive: 0 | inactive: 0.052 | inactive: 0 | inactive: 0.025 | inactive: -0.078 | inactive: 0.04
8 | NFS1 (UniProt Q9Y697) | inactive: -0.026 | inactive: 0.006 | inactive: -0.015 | inactive: 0.001 | inactive: -0.025 | inactive: 0.013 | inactive: 0.035 | inactive: 0.023 | inactive: -0.011 | inactive: 0.023
9 | NFYC (UniProt Q13952) | inactive: -0.017 | inactive: -0.041 | inactive: -0.024 | inactive: -0.021 | inactive: 0.032 | inactive: -0.008 | inactive: 0.014 | inactive: 0.048 | inactive: 0.038 | inactive: 0.066
10 | NFU1 (UniProt Q9UMS0) | inactive: -0.011 | inactive: -0.031 | inactive: 0.024 | inactive: 0.015 | inactive: 0.029 | inactive: -0.009 | inactive: 0.091 | inactive: 0.046 | inactive: 0 | inactive: 0
11 | NIPSNAP3A (UniProt Q9UFN0) | inactive: -0.055 | inactive: 0.013 | inactive: 0.035 | inactive: 0 | inactive: 0.035 | inactive: 0.009 | inactive: -0.009 | inactive: 0.011 | inactive: 0.047 | inactive: 0.047
12 | NMT2 (UniProt O60551) | inactive: 0.021 | inactive: 0.047 | inactive: 0.018 | inactive: 0.083 | inactive: -0.088 | inactive: -0.031 | inactive: -0.003 | inactive: 0.03 | inactive: -0.015 | inactive: 0.041
13 | NFATC2IP (UniProt Q8NCF5) | inactive: 0.065 | inactive: -0.029 | inactive: 0.001 | inactive: -0.153 | inactive: -0.096 | inactive: -0.146 | inactive: 0.097 | inactive: 0.049 | inactive: -0.003 | inactive: 0.051
14 | NKAP (UniProt Q8N5F7) | inactive: -0.016 | inactive: -0.081 | inactive: 0.059 | active: -0.792 | inactive: 0.086 | inactive: 0.015 | inactive: -0.033 | inactive: -0.253 | inactive: -0.138 | inactive: -0.169
15 | NOMO1 (UniProt Q15155) | inactive: 0.051 | inactive: 0.058 | inactive: 0.028 | inactive: 0.046 | inactive: 0.072 | inactive: -0.05 | inactive: -0.086 | inactive: 0.222 | inactive: 0.079 | –

Two entries from above, with tabs:
Row	Target	log2 fold change (bafetinib)	log2 fold change [1]	log2 fold change (nilotinib)	log2 fold change [2]	log2 fold change (dasatinib)	log2 fold change [3]	log2 fold change [4]	log2 fold change [5]	log2 fold change (tipifarnib)	log2 fold change (mubritinib)
8	NFS1 (UniProt Q9Y697)	inactive: -0.026	inactive: 0.006	inactive: -0.015	inactive: 0.001	inactive: -0.025	inactive: 0.013	inactive: 0.035	inactive: 0.023	inactive: -0.011	inactive: 0.023
9	NFYC (UniProt Q13952)	inactive: -0.017	inactive: -0.041	inactive: -0.024	inactive: -0.021	inactive: 0.032	inactive: -0.008	inactive: 0.014	inactive: 0.048	inactive: 0.038	inactive: 0.066
